Assay results published in the supplement of paper PMC10849652.
The other results are listed elsewhere or left out.

By UniProt entry, the sequences of proteins in these tests, tags left out. Where a name states a change or a piece, a line headed by the entry shows the natural chain unless it says otherwise.
UniProt Q92973: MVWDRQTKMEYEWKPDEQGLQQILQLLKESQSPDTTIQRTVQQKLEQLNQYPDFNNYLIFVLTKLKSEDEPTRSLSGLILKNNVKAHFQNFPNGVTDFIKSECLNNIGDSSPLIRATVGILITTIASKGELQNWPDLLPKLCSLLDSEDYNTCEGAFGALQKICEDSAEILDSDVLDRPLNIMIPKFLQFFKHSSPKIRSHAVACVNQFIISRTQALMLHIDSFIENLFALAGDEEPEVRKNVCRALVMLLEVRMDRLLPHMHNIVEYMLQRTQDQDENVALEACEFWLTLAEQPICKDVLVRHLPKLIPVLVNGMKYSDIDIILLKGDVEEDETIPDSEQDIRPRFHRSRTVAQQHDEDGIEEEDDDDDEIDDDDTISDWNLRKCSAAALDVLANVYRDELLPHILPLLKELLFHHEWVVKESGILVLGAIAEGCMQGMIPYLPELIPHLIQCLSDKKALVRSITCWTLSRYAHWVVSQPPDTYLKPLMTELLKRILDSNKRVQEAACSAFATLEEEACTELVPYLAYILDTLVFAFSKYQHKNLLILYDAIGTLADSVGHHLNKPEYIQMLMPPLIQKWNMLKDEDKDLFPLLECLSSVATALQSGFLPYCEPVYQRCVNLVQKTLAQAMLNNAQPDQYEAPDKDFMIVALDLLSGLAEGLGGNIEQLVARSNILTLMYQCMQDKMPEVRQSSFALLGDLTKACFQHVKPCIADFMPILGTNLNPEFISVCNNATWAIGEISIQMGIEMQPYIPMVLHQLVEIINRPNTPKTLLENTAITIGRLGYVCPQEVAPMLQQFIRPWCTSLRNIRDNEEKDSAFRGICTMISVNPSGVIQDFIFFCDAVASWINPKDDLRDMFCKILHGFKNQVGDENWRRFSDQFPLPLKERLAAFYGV
UniProt P29144: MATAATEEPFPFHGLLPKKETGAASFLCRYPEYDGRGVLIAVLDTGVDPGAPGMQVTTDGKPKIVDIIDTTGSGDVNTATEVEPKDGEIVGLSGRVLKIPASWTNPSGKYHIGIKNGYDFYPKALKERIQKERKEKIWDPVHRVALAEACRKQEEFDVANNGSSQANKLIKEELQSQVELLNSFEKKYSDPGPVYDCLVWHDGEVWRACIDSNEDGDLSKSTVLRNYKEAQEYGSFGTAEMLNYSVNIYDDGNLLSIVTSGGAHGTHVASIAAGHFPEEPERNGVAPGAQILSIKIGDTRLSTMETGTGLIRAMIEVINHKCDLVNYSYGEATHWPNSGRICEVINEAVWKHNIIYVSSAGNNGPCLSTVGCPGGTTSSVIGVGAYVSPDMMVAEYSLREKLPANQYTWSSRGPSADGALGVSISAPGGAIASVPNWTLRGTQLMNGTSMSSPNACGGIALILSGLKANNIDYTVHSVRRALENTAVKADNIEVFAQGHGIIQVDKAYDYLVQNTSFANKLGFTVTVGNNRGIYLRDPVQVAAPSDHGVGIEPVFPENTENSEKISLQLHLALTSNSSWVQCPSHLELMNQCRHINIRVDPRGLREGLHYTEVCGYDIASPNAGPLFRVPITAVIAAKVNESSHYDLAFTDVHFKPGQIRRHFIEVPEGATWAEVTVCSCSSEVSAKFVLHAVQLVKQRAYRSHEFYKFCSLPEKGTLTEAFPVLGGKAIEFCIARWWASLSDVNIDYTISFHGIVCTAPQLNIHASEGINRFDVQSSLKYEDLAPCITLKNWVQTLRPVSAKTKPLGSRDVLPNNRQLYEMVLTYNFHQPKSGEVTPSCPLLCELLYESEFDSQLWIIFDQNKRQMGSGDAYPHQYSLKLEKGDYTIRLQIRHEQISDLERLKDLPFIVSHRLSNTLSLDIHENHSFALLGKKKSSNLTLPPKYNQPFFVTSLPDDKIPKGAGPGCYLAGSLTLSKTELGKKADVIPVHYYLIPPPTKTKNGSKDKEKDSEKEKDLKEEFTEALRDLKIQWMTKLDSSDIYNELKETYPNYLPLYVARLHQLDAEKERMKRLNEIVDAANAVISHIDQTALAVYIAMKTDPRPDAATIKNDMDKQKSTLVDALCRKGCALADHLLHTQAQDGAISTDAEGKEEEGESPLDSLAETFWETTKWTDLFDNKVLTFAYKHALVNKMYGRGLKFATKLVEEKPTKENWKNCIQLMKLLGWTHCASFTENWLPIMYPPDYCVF
UniProt Q8N511: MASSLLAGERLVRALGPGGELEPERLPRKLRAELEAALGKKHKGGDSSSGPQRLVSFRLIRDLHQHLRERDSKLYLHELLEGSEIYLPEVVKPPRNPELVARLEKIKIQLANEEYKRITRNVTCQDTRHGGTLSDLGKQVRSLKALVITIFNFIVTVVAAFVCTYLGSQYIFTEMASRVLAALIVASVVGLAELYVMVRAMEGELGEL
UniProt Q9NQ34: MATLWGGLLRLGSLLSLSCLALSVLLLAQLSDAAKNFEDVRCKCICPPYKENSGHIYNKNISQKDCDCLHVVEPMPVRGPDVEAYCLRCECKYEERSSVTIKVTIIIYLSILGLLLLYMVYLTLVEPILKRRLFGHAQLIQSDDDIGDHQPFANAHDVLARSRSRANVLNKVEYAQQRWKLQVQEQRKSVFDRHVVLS
UniProt P12270, whole entry, looked up: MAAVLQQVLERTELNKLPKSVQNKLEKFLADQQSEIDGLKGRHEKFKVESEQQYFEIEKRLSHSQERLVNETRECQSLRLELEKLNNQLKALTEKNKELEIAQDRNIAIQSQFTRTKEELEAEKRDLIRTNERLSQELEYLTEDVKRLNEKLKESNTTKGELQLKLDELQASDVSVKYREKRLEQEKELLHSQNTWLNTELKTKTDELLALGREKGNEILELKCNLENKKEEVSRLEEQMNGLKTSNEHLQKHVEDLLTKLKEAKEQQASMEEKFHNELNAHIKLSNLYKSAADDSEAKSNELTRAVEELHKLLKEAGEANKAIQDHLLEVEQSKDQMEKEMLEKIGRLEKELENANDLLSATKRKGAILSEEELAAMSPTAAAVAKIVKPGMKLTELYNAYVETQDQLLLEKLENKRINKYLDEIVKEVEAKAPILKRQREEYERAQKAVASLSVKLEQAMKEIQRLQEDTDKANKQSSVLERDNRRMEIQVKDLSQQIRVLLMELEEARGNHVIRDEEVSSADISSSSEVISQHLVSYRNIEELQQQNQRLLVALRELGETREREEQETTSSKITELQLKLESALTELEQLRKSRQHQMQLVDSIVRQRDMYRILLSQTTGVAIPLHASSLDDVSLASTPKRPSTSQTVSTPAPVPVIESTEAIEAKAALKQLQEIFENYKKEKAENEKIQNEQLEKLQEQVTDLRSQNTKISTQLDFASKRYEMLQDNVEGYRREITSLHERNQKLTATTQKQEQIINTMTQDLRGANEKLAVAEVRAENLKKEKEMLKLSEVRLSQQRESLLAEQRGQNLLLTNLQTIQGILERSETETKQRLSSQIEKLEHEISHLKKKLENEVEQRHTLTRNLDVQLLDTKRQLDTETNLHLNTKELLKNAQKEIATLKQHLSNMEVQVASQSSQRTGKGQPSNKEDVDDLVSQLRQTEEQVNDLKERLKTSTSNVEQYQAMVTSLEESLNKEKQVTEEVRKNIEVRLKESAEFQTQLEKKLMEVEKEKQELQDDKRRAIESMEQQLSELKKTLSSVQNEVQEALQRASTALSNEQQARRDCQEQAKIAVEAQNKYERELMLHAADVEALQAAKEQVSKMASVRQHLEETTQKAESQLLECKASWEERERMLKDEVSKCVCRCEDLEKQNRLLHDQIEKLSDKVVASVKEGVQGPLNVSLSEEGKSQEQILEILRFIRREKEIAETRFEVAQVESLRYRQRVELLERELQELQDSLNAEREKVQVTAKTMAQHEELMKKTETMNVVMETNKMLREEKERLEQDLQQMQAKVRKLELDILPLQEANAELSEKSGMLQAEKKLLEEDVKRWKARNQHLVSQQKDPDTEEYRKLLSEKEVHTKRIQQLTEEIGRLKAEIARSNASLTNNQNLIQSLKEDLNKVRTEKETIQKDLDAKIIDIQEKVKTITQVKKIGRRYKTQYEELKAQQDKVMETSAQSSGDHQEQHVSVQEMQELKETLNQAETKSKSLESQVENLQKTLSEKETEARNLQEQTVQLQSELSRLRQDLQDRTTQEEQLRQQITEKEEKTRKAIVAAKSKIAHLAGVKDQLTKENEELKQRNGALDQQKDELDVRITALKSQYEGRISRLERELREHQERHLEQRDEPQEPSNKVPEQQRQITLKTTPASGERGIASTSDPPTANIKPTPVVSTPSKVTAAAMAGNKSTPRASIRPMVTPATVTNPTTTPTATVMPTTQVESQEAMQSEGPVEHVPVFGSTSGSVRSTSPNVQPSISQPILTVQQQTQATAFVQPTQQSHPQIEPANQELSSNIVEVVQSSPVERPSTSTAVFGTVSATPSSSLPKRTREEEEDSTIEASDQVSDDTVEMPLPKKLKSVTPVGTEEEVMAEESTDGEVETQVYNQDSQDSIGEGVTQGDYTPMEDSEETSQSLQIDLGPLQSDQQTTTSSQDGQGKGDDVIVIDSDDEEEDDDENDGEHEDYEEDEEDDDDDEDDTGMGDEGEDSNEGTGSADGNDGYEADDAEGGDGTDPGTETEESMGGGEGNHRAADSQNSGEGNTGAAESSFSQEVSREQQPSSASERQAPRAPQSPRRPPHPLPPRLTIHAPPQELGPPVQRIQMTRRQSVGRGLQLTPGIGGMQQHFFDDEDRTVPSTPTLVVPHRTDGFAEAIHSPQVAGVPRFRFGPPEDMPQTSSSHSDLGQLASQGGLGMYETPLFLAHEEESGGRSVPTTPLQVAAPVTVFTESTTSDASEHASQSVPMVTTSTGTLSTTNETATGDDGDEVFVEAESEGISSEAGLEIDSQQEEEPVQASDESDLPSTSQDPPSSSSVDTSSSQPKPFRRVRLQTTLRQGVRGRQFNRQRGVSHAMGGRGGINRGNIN
UniProt Q8IY95: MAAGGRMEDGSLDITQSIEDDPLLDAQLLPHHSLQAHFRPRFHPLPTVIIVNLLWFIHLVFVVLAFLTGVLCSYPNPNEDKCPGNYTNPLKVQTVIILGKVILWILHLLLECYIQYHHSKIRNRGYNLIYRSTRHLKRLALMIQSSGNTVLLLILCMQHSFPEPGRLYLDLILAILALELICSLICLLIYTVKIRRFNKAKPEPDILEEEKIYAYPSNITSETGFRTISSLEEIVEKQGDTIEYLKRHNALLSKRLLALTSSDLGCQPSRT
UniProt Q9ULW0, whole entry, looked up: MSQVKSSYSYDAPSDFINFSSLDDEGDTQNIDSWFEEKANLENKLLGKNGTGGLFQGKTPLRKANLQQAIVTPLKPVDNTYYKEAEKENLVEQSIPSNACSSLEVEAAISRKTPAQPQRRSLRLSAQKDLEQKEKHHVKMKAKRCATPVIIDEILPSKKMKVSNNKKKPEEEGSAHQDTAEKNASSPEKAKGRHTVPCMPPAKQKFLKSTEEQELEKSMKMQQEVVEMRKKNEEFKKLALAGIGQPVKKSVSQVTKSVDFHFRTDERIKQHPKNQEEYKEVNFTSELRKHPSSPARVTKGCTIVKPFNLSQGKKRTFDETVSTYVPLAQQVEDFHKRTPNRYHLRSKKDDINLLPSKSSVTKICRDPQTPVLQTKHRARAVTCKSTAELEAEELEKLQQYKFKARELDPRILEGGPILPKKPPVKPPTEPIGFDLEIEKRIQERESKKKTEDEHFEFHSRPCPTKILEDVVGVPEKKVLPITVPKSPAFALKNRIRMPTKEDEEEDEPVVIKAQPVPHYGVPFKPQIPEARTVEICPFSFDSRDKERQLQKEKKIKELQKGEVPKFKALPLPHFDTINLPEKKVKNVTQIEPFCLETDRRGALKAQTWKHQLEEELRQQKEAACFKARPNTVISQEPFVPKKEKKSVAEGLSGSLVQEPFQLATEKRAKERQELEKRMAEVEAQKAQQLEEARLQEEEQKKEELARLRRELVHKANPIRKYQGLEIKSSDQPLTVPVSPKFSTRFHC
UniProt P20333, whole entry, looked up: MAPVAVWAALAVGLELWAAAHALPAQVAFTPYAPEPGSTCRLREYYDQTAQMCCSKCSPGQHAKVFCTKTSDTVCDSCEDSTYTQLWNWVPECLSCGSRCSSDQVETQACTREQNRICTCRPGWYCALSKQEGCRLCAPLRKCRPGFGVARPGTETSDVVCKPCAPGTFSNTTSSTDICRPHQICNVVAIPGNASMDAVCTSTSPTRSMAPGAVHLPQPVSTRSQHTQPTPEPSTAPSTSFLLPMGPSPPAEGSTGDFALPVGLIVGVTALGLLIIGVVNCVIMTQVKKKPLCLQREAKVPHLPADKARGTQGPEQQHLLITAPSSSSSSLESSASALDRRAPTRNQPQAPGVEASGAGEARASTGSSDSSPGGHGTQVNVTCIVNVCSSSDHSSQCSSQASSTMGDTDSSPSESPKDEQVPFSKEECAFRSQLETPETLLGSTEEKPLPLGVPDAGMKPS
UniProt O95379: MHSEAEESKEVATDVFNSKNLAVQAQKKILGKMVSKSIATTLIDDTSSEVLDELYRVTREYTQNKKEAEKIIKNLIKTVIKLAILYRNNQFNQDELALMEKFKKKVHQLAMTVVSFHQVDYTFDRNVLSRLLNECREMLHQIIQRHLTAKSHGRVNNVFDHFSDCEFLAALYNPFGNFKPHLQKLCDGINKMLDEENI

Compound: C=CC(=O)N1CCC[C@@H](n2nc(-c3ccc(Oc4ccccc4)cc3)c3c(N)ncnc32)C1 [ibrutinib]
Test: log2 fold change, soluble protein after heating vs DMSO (PISA); higher = thermal stabilisation; K562 lysate, 10 uM; active = over 0.2 and 3.5 SD of the protein, either way, in both replicates (recomputed)
Method in brief: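 A 30 min treatment with 10 μM compound was applied to crude K562 extract at 1 mg/mL protein in PBS pH 7.4 with 1 mM MgCl2. Heating for 3 min spanned 48°C-58°C, after which aliquots were pooled, adjusted to 0.5% NP-40 at 4°C and spun at 21,000xg for 90 min. TMTpro 16plex LC-MS/MS of the supernatant, with channel sums equalised, gave values recorded as log-two fold change in thermal stability against solvent controls, from duplicates.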

log2 fold change, inactive:
TPI1 (UniProt P60174) -0.026
TMOD3 (UniProt Q9NYL9) -0.027
TOR1AIP1 isoform 3 (UniProt Q5JTV8) -0.008
TNPO1 (UniProt Q92973) -0.005
TPP2 (UniProt P29144) -0.018
TOR1AIP2 (UniProt Q8NFQ8) 0.02
TP53BP1 isoform 2 (UniProt Q12888) -0.011
TP53BP2 isoform 3 (UniProt Q13625) 0.028
TMEM245 (UniProt Q9H330) -0.008
TPM1 isoform 4 (UniProt P09493) -0.019
TPM4 (UniProt P67936) -0.019
TMTC3 (UniProt Q6ZXV5) 0.014
TOP2B isoform 2 (UniProt Q02880) 0.008
TOP1 (UniProt P11387) -0.002
TOX4 (UniProt O94842) -0.009
TNFRSF8 (UniProt P28908) 0.036
TMEM63A (UniProt O94886) 0.017
TPP2 (UniProt Q5VZU9) 0.073
TMEM199 (UniProt Q8N511) 0.067
TPD52L2 isoform 7 (UniProt O43399) -0.016
TOP2A isoform 4 (UniProt P11388) -0.018
TOP3A (UniProt Q13472) -0.009
TMEM219 (UniProt Q86XT9) 0.044
TMEM9B (UniProt Q9NQ34) 0.095
TMX3 (UniProt Q96JJ7) -0.015
TPR (UniProt P12270) 0.015
TMEM192 (UniProt Q8IY95) 0.03
TPX2 (UniProt Q9ULW0) 0.024
TNFRSF1B (UniProt P20333) -0.069
TPP1 (UniProt O14773) 0.042
TP53I3 (UniProt Q53FA7) 0.003
TMEM43 (UniProt Q9BTV4) 0.013
TNFAIP8 isoform 4 (UniProt O95379) -0.027
